Assay results from publication PMC7862700.
The list shows a part of the results, in another mix than the full data. At the low end of the ranking the order means little.

Amino acid sequences for entries named in this document (tags omitted). A change or cut given only in a name is not applied to a line headed by its entry.
UniProt P41212: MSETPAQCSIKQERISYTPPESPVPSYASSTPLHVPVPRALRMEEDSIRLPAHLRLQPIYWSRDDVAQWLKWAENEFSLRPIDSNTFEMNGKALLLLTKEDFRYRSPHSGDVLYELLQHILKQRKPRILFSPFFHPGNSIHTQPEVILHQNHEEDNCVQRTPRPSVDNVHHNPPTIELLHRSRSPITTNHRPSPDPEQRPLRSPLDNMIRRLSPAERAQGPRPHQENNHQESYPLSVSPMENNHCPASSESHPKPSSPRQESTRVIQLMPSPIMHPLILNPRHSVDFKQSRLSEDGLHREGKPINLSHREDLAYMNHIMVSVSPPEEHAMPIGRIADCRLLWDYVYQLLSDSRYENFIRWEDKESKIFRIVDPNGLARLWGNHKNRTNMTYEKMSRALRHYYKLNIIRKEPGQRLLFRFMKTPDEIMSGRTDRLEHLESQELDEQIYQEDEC

target: ETV6 (UniProt P41212); test: DAPPL (digital affinity profiling via proximity ligation, sequencing); details: 10 mM Tris-HCl pH 7.5, 50 mM NaCl, 1 mM DTT, 4% glycerol, room temperature, 30 min; GST-TFs on glutathione beads, 16-mer random dsDNA library, 0.1% …; high values mean tight binding; double strand, one strand shown; scale: fold enrichment (6-mer frequency, TF over GST control)

Sequence | binding signal
TGTTGA | 1.01
GCGAAT | 0.98
TCTGCG | 1.14
CTAACT | 1.29
AAAGCT | 1.09
TTTTGG | 1.42
CGCTTA | 1.11
GCTGGT | 1.13
TCCAAA | 1.14
GATCAT | 0.94
CGATGG | 1.33
CAAACT | 1.21
CATTCA | 1.09
AATCTC | 1.26
GTCACG | 1.04
CACTGT | 1.05
CGACCA | 1.33
CACCTA | 1.02
TAGTTA | 1.16
CTGAAG | 1.05

Sequence | binding signal
ATTCGA | 1.23
TCTAAC | 1.22
CCTCCA | 1.29
CCGCAG | 1
TGCGTC | 0.965
ATGGTC | 1.52
GTACAC | 1.29
TTGTTG | 1.07
ACATTT | 1.56
ACTCAC | 1.22
CTGCGG | 1.09
TCTATG | 0.909
CCGCTG | 1.11
TCCTTA | 1.63
GCCCCG | 1.09
TCATCC | 1.38
ACCCAC | 1.2
TTGGGC | 1.11
CGGAAG | 3.4
GTGCTA | 0.983

2 entries drawn at random from the list so far, as already listed:
Sequence | binding signal
TTGGGC | 1.11
TCCTTA | 1.63
